# Measured values published in PubChem BioAssay AID504444 (National Center for Advancing Translational Sciences (NCATS), 2011).
# Screen size: about 360,000 compounds; about 7,500 (2.1%) were called active. The shares of active, inactive and inconclusive entries below differ from those in the screen. The call rests on the fitted dose curve; in most records, active means well fitted inhibition curve with a large enough effect; inconclusive means small, poorly fitted or top-dose-only effect, or effect the other way; inactive means flat fitted curve, though single readings scatter. Where the call is inconclusive, the potency comes from a doubtful curve fit.
# Experiment: Nrf2 qHTS screen for inhibitors; further: nearly all actives have a fitted effect of over 60% in size
# Details: A549 ARE-Fluc reporter, luciferase luminescence, 18-24 h; series mostly up to 46 µM
# How it was run: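 Quantitative HTS in A549 cells stably bearing an antioxidant response element-firefly luciferase construct. Inhibition of Nrf2-driven transcription was scored by luminescence after 18-24 h of compound exposure at 37 °C.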
# Potency means the concentration at half of the fitted maximal effect.
row,SMILES,Potency
1,Cc1cccc(C(=O)OCC(=O)Nc2sc3c(c2C#N)CCC3)c1,inactive
2,Cc1ccc2cc(NC(=O)c3cccc(F)c3)ccc2n1,"inconclusive: 2.06 µM [activator, full curve]"
3,CCNC(=S)N1CCN(c2ccccn2)CC1,inactive
4,COc1cccc(C2c3[nH]c4ccccc4c3C[C@H]3C(=O)N(C4CCN(Cc5ccccc5)CC4)CC(=O)N23)c1 (stereo partly specified),"inconclusive: 2.91 µM [activator, partial curve, poor fit]"
5,CCc1ccccc1N1CC(c2nc3ccccc3n2Cc2cccc(C)c2)CC1=O (stereo unspecified),"inconclusive: 29.1 µM [falling, single point]"
6,Cc1ccc(S(=O)(=O)NCCC(=O)OC(C)C(=O)NC2CC2)cc1 (stereo unspecified),inactive
7,CC(C)CN(CCNC(=O)CN1C(=O)COc2ccc(S(=O)(=O)N3CCC(C)CC3)cc21)CC(C)C,"inconclusive: 0.164 µM [activator, full curve, poor fit]"
8,O=C(CSc1ncnc2ccccc12)Nc1cccc(S(=O)(=O)N2CCOCC2)c1,active: 16.4 µM
9,CC(C)(C)OC(=O)[C@H](NC(=O)OCc1ccccc1)c1ccccc1,"inconclusive: 29.1 µM [falling, single point]"
10,N#Cc1ccccc1Cn1nnc2c(=O)[nH]c(C3CCCN(S(=O)(=O)c4ccc(F)cc4)C3)nc21 (stereo unspecified),inactive
11,Cc1cnc(Nc2nc3ccccc3o2)nc1C(=O)Nc1cccc(C(F)(F)F)c1,active: 16.4 µM
12,CCOc1ccccc1N1CC(c2nc3ccccc3n2CCCOc2ccccc2OC)CC1=O (stereo unspecified),"inconclusive: 3.26 µM [activator, single point]"
13,O=S(=O)(Nc1c(Br)cc(Br)c2cccnc12)C1CCCCC1,inactive
14,COc1ccc(NS(=O)(=O)c2ccc(C)c(C(=O)OC(C)C(=O)N3CCOCC3)c2)cc1 (stereo unspecified),"inconclusive: 16.4 µM [falling, partial curve]"
15,O=C(OCC(=O)N1CCOCC1)c1cccc(F)c1,"inconclusive: 3.66 µM [activator, full curve]"
16,COC(=O)c1ccc(NC(=O)c2nc(S(=O)(=O)Cc3cccc(C)c3)ncc2Cl)cc1,"inconclusive: 29.1 µM [falling, single point]"
17,CCOc1ccc(CCNS(=O)(=O)c2c(C)nc3sc(C)cn3c2=O)cc1OCC,"inconclusive: 8.2 µM [activator, partial curve, poor fit]"
18,N/C(=N\OC(=O)c1ccc2c(c1)OCO2)c1ccc(Cl)cc1,"inconclusive: 13 µM [activator, partial curve]"
19,O=C(O)c1nn(-c2ccccc2)nc1-c1nn(-c2ccccc2)nc1C(=O)O,inactive
20,O=C(Nc1ccc(SC(F)F)cc1)c1ccc(F)cc1,"inconclusive: 0.517 µM [activator, full curve, poor fit]"
21,CCC1(OC(=O)CN(C)C)C(=O)OCc2c1cc1n(c2=O)Cc2cc3c(N)cccc3nc2-1 (stereo unspecified),active: 0.651 µM
22,O=C(CCCSc1nc(-c2ccco2)cc(C(F)(F)F)n1)Nc1ccc2c(c1)OCO2,"inconclusive: 29.1 µM [falling, single point]"

row,SMILES,Potency
1,O=C1/C(=C\c2ccc3ccccc3c2)CCCc2ccccc21,inactive
2,Cc1ccccc1OCc1nnc(SCC(=O)Nc2ccc3nc(SCC(=O)Nc4ccccc4)sc3c2)n1C,"inconclusive: 9.2 µM [falling, partial curve]"
3,CC(C)C(OC(=O)C1=Cc2ccccc2OC1)C(=O)NC1CCCC1 (stereo unspecified),"inconclusive: 29.1 µM [falling, single point]"
4,O=C(c1ccccc1)N1CCN(c2ccc([N+](=O)[O-])c(NCc3ccco3)c2)CC1,"inconclusive: 29.1 µM [falling, single point]"
5,Cc1ccc(NC(=O)CCS(=O)(=O)c2ccc3nc(C)sc3c2)cc1,"inconclusive: 29.1 µM [activator, single point]"
6,O=C(NNC(=O)C1CCCN(c2ncccn2)C1)c1ccncc1 (stereo unspecified),"inconclusive: 0.259 µM [falling, full curve]"
7,CC(C)c1ccc(NC(=O)CNS(=O)(=O)c2ccc(F)cc2)cc1,"inconclusive: 2.06 µM [falling, partial curve, poor fit]"
8,CCOC(=O)c1ccc(N2C(=O)c3n[nH]c(C)c3C2c2ccc(OC)cc2)cc1 (stereo unspecified),"inconclusive: 29.1 µM [falling, single point]"
9,COCCOC(=O)C(C#N)c1nc2ccccc2nc1N1CCN(Cc2ccccc2)CC1 (stereo unspecified),inactive
10,Cn1nnnc1Sc1ncnc2scc(-c3ccc(C#N)cc3)c12,active: 16.4 µM
11,CCn1cnc2c(Nc3cc(F)cc(F)c3)nc(C(=O)COc3c(F)c(F)cc(F)c3F)nc21,inactive
12,CCOc1ccccc1CNC(=O)C1CCN(c2nn3c(=O)cc(C)nc3s2)CC1,"inconclusive: 0.116 µM [falling, full curve, poor fit]"
13,CC(=O)Nc1ccc(NC(=O)C2CCCCN2S(=O)(=O)c2ccc(C(C)(C)C)cc2)cc1 (stereo unspecified),"inconclusive: 29.1 µM [activator, single point]"
14,O=C(C=Cc1ccc2c(c1)OCO2)OCC=Cc1ccc2c(c1)OCO2,inactive
15,CCCc1cc(C(=O)N2CCN(C(c3ccccc3)c3ccccc3)CC2)no1,"inconclusive: 7.31 µM [falling, partial curve, poor fit]"
16,CC(C)c1ccc(C(=O)Nc2cccc3cccnc23)cc1,"inconclusive: 6.51 µM [activator, partial curve]"
17,Cc1cc(-c2ccccc2)nc(N2CCC(C(=O)NC34CC5CC(CC(C5)C3)C4)CC2)n1,"inconclusive: 29.1 µM [activator, single point]"
18,S=C(NC1CCCCC1)c1ccc2c(c1)OCO2,"inconclusive: 5.17 µM [activator, single point]"
19,Cc1nc2sc(C(=O)OCC(=O)N3c4ccccc4CC3C)c(C)c2c(=O)[nH]1 (stereo unspecified),"inconclusive: 29.1 µM [falling, single point]"
20,Cc1cc(=O)n2c(C(=O)Nc3ccc(C(=O)OC(C)C)cc3)c(C(=O)Nc3ccccc3)sc2n1,"inconclusive: 20.6 µM [falling, single point]"
21,CCc1ccc(OCc2nc(-c3ccccn3)no2)c(Br)c1,"inconclusive: 0.326 µM [activator, full curve]"
22,COc1cc(C(=O)N2CCN(c3ccc([N+](=O)[O-])cc3)CC2)ccc1OCc1c(C)noc1C,"inconclusive: 29.1 µM [falling, single point]"

# Reprinted at random: 3 records from the list, in no set order.
row,SMILES,Potency
14,O=C(C=Cc1ccc2c(c1)OCO2)OCC=Cc1ccc2c(c1)OCO2,inactive
10,Cn1nnnc1Sc1ncnc2scc(-c3ccc(C#N)cc3)c12,active: 16.4 µM
11,CCn1cnc2c(Nc3cc(F)cc(F)c3)nc(C(=O)COc3c(F)c(F)cc(F)c3F)nc21,inactive

# (further entries)

row,SMILES,Potency
1,COc1cccc(C(=O)Nc2nnc(-c3cccs3)s2)c1,"inconclusive: 2.59 µM [activator, full curve]"
2,O=C(CCS(=O)(=O)c1cc2c3c(c1)CCN3C(=O)CC2)NCc1ccc(F)cc1,inactive
3,COc1cc(CN2CCN(Cc3ccco3)CC2)cc(OC)c1,inactive
4,CC(/C=N/O)Cc1ccc2c(c1)OCO2 (stereo unspecified),"inconclusive: 18.4 µM [falling, partial curve, poor fit]"
5,COc1cccc(Nc2ncnc3c2cnn3-c2cccc(C)c2)c1,"inconclusive: 0.013 µM [falling, full curve, poor fit]"
6,c1ccc(OCCSc2nnnn2-c2ccccc2)cc1,"inconclusive: 2.91 µM [activator, full curve]"
7,COCCc1nn2c(=O)cc(COC(=O)COc3ccccc3C)nc2s1,"inconclusive: 25.9 µM [activator, partial curve, poor fit]"
8,CC1CCN(S(=O)(=O)c2ccc(NC(=O)c3ccncc3)cc2)CC1,"inconclusive: 16.4 µM [falling, single point]"
9,COC(=O)c1ccc(N=NNc2cccc(Br)c2)cc1,"inconclusive: 5.17 µM [activator, partial curve]"
10,O=C(Nc1noc2ccccc12)c1cccc(F)c1,"inconclusive: 2.31 µM [activator, partial curve]"
11,NS(=O)(=O)c1ccc(Nc2ccccc2)c([N+](=O)[O-])c1,"inconclusive: 20.6 µM [falling, partial curve, poor fit]"
12,O=S(=O)(NC1=NCCCCC1)c1ccc2sc(NS(=O)(=O)c3ccc4ccccc4c3)nc2c1,"inconclusive: 13 µM [falling, partial curve, poor fit]"
13,CCn1cc2nc(SCC(=O)Nc3ccc(OC)c(OC)c3)n(Cc3ccc(OC)cc3)c(=O)c2n1,"inconclusive: 29.1 µM [falling, partial curve, poor fit]"
14,CN(CCOc1ccccc1)C(=O)c1ccc(Cl)c(S(=O)(=O)N2CCCCC2)c1,"inconclusive: 18.4 µM [falling, single point]"
15,COc1ccc([C@H]2Cc3cc(O)cc(O)c3C(=O)O2)cc1O,inactive
16,Cc1cc(NC(=S)N(Cc2ccc(Br)cc2)Cc2ccc(C(=O)O)cc2)ccc1Cl,inactive
17,O=C(Nc1ccc2oc(-c3ccccc3Cl)nc2c1)c1cncc(Br)c1,"inconclusive: 14.6 µM [falling, partial curve, poor fit]"
18,CC(C)c1ccc(NS(=O)(=O)c2ccc3[nH]c(=O)ccc3c2)cc1,"inconclusive: 29.1 µM [falling, single point]"
19,Cc1c(C(=O)Nc2nccs2)oc2ccc(Br)cc12,"inconclusive: 0.411 µM [activator, full curve, poor fit]"
20,CC(N)=Nc1ccc([N+](=O)[O-])cc1,inactive
21,COc1cc(C(=O)Nc2nc(-c3cc(C)ccc3C)c(C)s2)ccc1OCC(=O)Nc1ccc(F)cc1,"inconclusive: 18.4 µM [falling, single point]"
22,C/C(=N\NC(=O)c1c[nH]c2ccccc12)c1ccccn1,inactive
